Results on 35 molecules are retold here after the supplement of paper PMC4635364.

Counter-ions that a name gives are not always drawn. Some of the results follow. Repeats in this data set agree poorly, so a single value says little.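 ReNCell VM, a human fetal ventral-midbrain neural progenitor line, was differentiated without mitogens. Blinded raters scored images stained for doublecortin (early neurons) or tyrosine hydroxylase (dopaminergic neurons) against untreated wells (0 = no change). Scores were averaged across repeats and both raters, and compounds averaging 2 or more were selected as hits for retesting.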

Assay [1] concerns ReNCell VM. As to the kind of experiment: neuronal differentiation score (DCX+ cell fraction vs untreated, manual image score) (score (-3 to 3)); higher = more neuronal differentiation. The note with it: 2 uM, 2 weeks.
The test system of assay [2] is ReNCell VM. Kind of assay: dopaminergic neuron differentiation score (TH+ cell fraction vs untreated, manual image score) (score (0 to 3)); higher = more TH+ dopaminergic neuron differentiation. Particulars: 2 uM, 4 weeks, BDNF 10 ng/ml + GDNF 10 ng/ml.

On to `COc1ccc2c(=O)oc3c(OC)cc(CCN(C)C)c4c(=O)oc1c2c34` [taspine], for which, in assay [1] (library: Natural), the neuronal differentiation score is inactive: 0. Moreover, the “dopaminergic neuron differentiation score” value in assay [2] (library: Natural) was inactive: 0.
On to `O=C(O)c1cc(=O)c2c(OCC(O)COc3cccc4oc(C(=O)O)cc(=O)c34)cccc2o1` [Cromolyn disodium salt], for which, in assay [1] (library: Prestwick), the neuronal differentiation score was inactive: 0. In addition, in assay [2] (library: Prestwick), the “dopaminergic neuron differentiation score” value was inactive: 0.
For the molecule `C[N+](C)(C)CCCCCC[N+](C)(C)C` [Hexamethonium dibromide dihydrate], the neuronal differentiation score in assay [1] (library: Prestwick) was inactive: 0. Besides, the “dopaminergic neuron differentiation score” value in assay [2] (library: Prestwick) is inactive: 0.
Consider `CCOC(=O)c1c(C)cc(O)c(C=O)c1O`, for which the neuronal differentiation score in assay [1] (library: Spectrum) was inactive: 0. For the same molecule, the “dopaminergic neuron differentiation score” value in assay [2] (library: Spectrum) is inactive: 0.
In the case of `Cc1cccc(C#Cc2ccccc2)n1` [MPEP hydrochloride], the neuronal differentiation score in assay [1] (library: Tocriscreen) is inactive: 0. The “dopaminergic neuron differentiation score” value in assay [2] (library: Tocriscreen) is inactive: 0.
Take `CC1=CC(=O)C(C(C)C)=CC1=O`: the neuronal differentiation score in assay [1] (library: Spectrum) was inactive: 0. The “dopaminergic neuron differentiation score” value in assay [2] (library: Spectrum) was inactive: 0.
Turning to `CCOC(=O)O[C@]1(C(=O)COC(=O)CC)CC[C@H]2[C@@H]3CCC4=CC(=O)C=C[C@]4(C)[C@H]3[C@@H](O)C[C@@]21C`, in assay [1] (library: Spectrum), the neuronal differentiation score was inactive: 0. Moreover, in assay [2] (library: Spectrum), the “dopaminergic neuron differentiation score” value is inactive: 0.
For `Cc1c(NC(=O)c2cccnc2)c(=O)n(-c2ccccc2)n1C` [Nifenazone], the neuronal differentiation score in assay [1] (library: Prestwick) was inactive: 0. Moreover, the “dopaminergic neuron differentiation score” value in assay [2] (library: Prestwick) is inactive: 0.
Take `C[C@]12CCC3c4ccc(OS(=O)(=O)O)cc4CCC3C1CC[C@H]2O` (stereo not given in full): the neuronal differentiation score in assay [1] (library: Spectrum) is inactive: 0. Moreover, the “dopaminergic neuron differentiation score” value in assay [2] (library: Spectrum) is inactive: 0.
Consider `CCCCNc1ccc(C(=O)OCCN(C)C)cc1` [Tetracaine hydrochloride], for which the neuronal differentiation score in assay [1] (library: LOPAC) was inactive: 0. Further, the “dopaminergic neuron differentiation score” value in assay [2] (library: LOPAC) was inactive: 0.
As to `COc1ccc2cc([C@@H](C)C(=O)O)ccc2c1` [(R) -Naproxen sodium salt], the neuronal differentiation score in assay [1] (library: Prestwick) was inactive: 0. For the same molecule, in assay [2] (library: Prestwick), the “dopaminergic neuron differentiation score” value was inactive: 0.
Regarding `O=c1cc(-c2ccccc2)oc2c(O)c(O)ccc12`, the neuronal differentiation score in assay [1] (library: Spectrum) is inactive: 0. The “dopaminergic neuron differentiation score” value in assay [2] (library: Spectrum) is inactive: 0.
As for `C[C@]12C=CC(=O)C=C1CC[C@H]1[C@@H]3C[C@@H](O)[C@](O)(C(=O)CO)[C@@]3(C)C[C@H](O)[C@@]12F`, the neuronal differentiation score in assay [1] (library: Spectrum) was inactive: 0. Moreover, the “dopaminergic neuron differentiation score” value in assay [2] (library: Spectrum) is inactive: 0.
On to `CC1CC(OC(=O)c2ccccc2O)CC(C)(C)C1` (stereo not given), for which, in assay [1] (library: Spectrum), the neuronal differentiation score is inactive: 0. For the same molecule, the “dopaminergic neuron differentiation score” value in assay [2] (library: Spectrum) is inactive: 0.
In the case of `CC(CN1c2ccccc2Sc2ccccc21)N(C)C` (stereo not given), in assay [1] (library: Spectrum), the neuronal differentiation score is inactive: 0. In addition, the “dopaminergic neuron differentiation score” value in assay [2] (library: Spectrum) is inactive: 0.
Regarding `C#C[C@]1(O)CC[C@H]2[C@@H]3CCc4cc(OC)ccc4[C@H]3CC[C@@]21C` [Ethynylestradiol 3-methyl ether], the neuronal differentiation score in assay [1] (library: Prestwick) was inactive: 0. Also, the “dopaminergic neuron differentiation score” value in assay [2] (library: Prestwick) is inactive: 0.
For `Oc1ccc(O)cc1` [Hydroquinone], the neuronal differentiation score in assay [1] (library: LOPAC) is inactive: -3. In assay [2] (library: LOPAC), the “dopaminergic neuron differentiation score” value is inactive: 0.
`CNCC[C@@H](Oc1ccccc1C)c1ccccc1`: the neuronal differentiation score in assay [1] (library: Spectrum) is inactive: 1. Also, in assay [2] (library: Spectrum), the “dopaminergic neuron differentiation score” value is inactive: 0.
`Fc1ccc([C@@H]2CCNC[C@H]2COc2ccc3c(c2)OCO3)cc1` [Paroxetine hydrochloride hemihydrate (MW = 374.83)]: the neuronal differentiation score in assay [1] (library: LOPAC) is inactive: 0. Further, in assay [2] (library: LOPAC), the “dopaminergic neuron differentiation score” value was inactive: 0.
As for `N[C@@H]1CONC1=O`, the neuronal differentiation score in assay [1] (library: Spectrum) was inactive: 1. Also, the “dopaminergic neuron differentiation score” value in assay [2] (library: Spectrum) was inactive: 0.
Turning to `C[C@@H]1CC[C@@]2(OC1)O[C@H]1C[C@H]3[C@@H]4CC=C5C[C@@H](O)CC[C@]5(C)[C@H]4CC[C@]3(C)[C@H]1[C@@H]2C` [Diosgenin], the neuronal differentiation score in assay [1] (library: Phytochemical) is inactive: 0. Further, in assay [2] (library: Phytochemical), the “dopaminergic neuron differentiation score” value is inactive: 0.
For the molecule `CCOCCOc1ccccc1C(N)=O`, the neuronal differentiation score in assay [1] (library: Spectrum) is inactive: 1. Moreover, the “dopaminergic neuron differentiation score” value in assay [2] (library: Spectrum) is inactive: 0.
Regarding `Cc1nn(-c2ccccc2)c(C)c1C=NN1CCN(Cc2ccccc2)CC1`, in assay [1] (library: Tocriscreen), the neuronal differentiation score is inactive: 0. The “dopaminergic neuron differentiation score” value in assay [2] (library: Tocriscreen) was inactive: 0.
For `NC(=O)N1c2ccccc2CC(O)c2ccccc21` (stereo not given) [Licarbazepine], the neuronal differentiation score in assay [1] (library: Tocriscreen) was inactive: 0. Further, in assay [2] (library: Tocriscreen), the “dopaminergic neuron differentiation score” value is inactive: 0.
For the molecule `COc1cc2nc(N(C)CCCNC(=O)C3CCCO3)nc(N)c2cc1OC` (stereo not given), in assay [1] (library: Spectrum), the neuronal differentiation score is inactive: 0. In addition, the “dopaminergic neuron differentiation score” value in assay [2] (library: Spectrum) is inactive: 0.
Turning to `COc1cc(OC)c2ccc(=O)oc2c1`, the neuronal differentiation score in assay [1] (library: Spectrum) was inactive: 0. The “dopaminergic neuron differentiation score” value in assay [2] (library: Spectrum) is inactive: 0.
For `N#C/C(=C(/N)Sc1ccc(N)cc1)c1ccccc1C(F)(F)F`, the neuronal differentiation score in assay [1] (library: Tocriscreen) was inactive: 0. Moreover, the “dopaminergic neuron differentiation score” value in assay [2] (library: Tocriscreen) was inactive: 0.
Take `Cc1nc(N=Nc2cc(S(=O)(=O)O)c3cc([N+](=O)[O-])cc(S(=O)(=O)O)c3c2)c(COP(=O)(O)O)c(C=O)c1O` [PPNDS tetrasodium]: the neuronal differentiation score in assay [1] (library: LOPAC) was inactive: 0. The “dopaminergic neuron differentiation score” value in assay [2] (library: LOPAC) is inactive: 0.
For `CC(C)Oc1ccc2c(=O)c3cc(C(=O)O)ccc3oc2c1`, in assay [1] (library: Tocriscreen), the neuronal differentiation score is inactive: 0. The “dopaminergic neuron differentiation score” value in assay [2] (library: Tocriscreen) was inactive: 0.
With `N[C@@H](CC(=O)N1CCn2c(nnc2C(F)(F)F)C1)Cc1cc(F)c(F)cc1F`, the neuronal differentiation score in assay [1] (library: Spectrum) is inactive: 0. For the same molecule, in assay [2] (library: Spectrum), the “dopaminergic neuron differentiation score” value is inactive: 0.
Take `O=c1c(O)c(-c2ccc(O)c(O)c2)oc2cc(O)cc(O)c12` [Quercetin dihydrate]: the neuronal differentiation score in assay [1] (library: LOPAC) was inactive: 0. Besides, the “dopaminergic neuron differentiation score” value in assay [2] (library: LOPAC) is inactive: 0.
Take `O=C1c2c(O)cc(CO)cc2C(OC2OC(CO)C(O)C(O)C2O)c2cccc(OC3OC(CO)C(O)C(O)C3O)c21` (stereo not given) [CASANTHRANOL [cascaroside A shown]]: in assay [1] (library: Spectrum), the neuronal differentiation score was inactive: 1. For the same molecule, in assay [2] (library: Spectrum), the “dopaminergic neuron differentiation score” value was inactive: 0.
With `c1ccc(CNc2ncnc3nc[nH]c23)cc1` [Aminopurine, 6-benzyl], the neuronal differentiation score in assay [1] (library: Prestwick) was inactive: 0. Moreover, in assay [2] (library: Prestwick), the “dopaminergic neuron differentiation score” value is inactive: 0.
As for `CCCCC(CC)CN=C(N)N=C(N)NCCCCCCNC(N)=NC(N)=NCC(CC)CCCC` (stereo not given), in assay [1] (library: Spectrum), the neuronal differentiation score is inactive: 0. Moreover, in assay [2] (library: Spectrum), the “dopaminergic neuron differentiation score” value is inactive: 0.
Consider `CO[C@H]1C[C@H](O[C@H]2[C@H](C)[C@@H](O[C@@H]3O[C@H](C)C[C@H](N(C)C)[C@H]3OC(C)=O)[C@@H](C)C[C@@]3(CO3)C(=O)[C@H](C)[C@@H](OC(C)=O)[C@@H](C)[C@@H](C)OC(=O)[C@@H]2C)O[C@@H](C)[C@@H]1OC(C)=O` [Troleandomycin], for which, in assay [1] (library: Prestwick), the neuronal differentiation score is inactive: 0. Besides, in assay [2] (library: Prestwick), the “dopaminergic neuron differentiation score” value was inactive: 0.
